{"source": "patent US20210308089A1", "about": "“METHODS OF TREATING AND/OR PREVENTING VIRAL INFECTIONS AND/OR DISEASES CAUSED BY VIRUSES IN A SUBJECT IN NEED THEREOF” (priority 2020, published 2021)", "tested_on": "patients of the REDUCE-IT and earlier EPA placebo-controlled trials", "assay": "Example 3: adverse events by risk ratio, icosapent ethyl vs placebo (candidate categories; infectious disease terms of interest)", "settings": "R-I; Periodontitis", "note": "This continues a long series; more values of the same kind are listed elsewhere."}
{"smiles": "CC/C=C\\C/C=C\\C/C=C\\C/C=C\\C/C=C\\CCCC(=O)OCC", "note": "[icosapent ethyl, eicosapentaenoic acid ethyl ester]", "values": [{"measurement": "Risk Ratio (95% CI)", "value": "1.667 (0.399 to 6.971) −2"}]}
